From the supplement of paper PMC6411743
± gives the standard deviation of the averaged measurements. The entries are a selection whose mix differs from that of the whole data set.

By UniProt entry, the sequences of proteins in these tests, tags left out. Where a name states a change or a piece, a line headed by the entry shows the natural chain unless it says otherwise.
UniProt Q8NEB9, whole entry: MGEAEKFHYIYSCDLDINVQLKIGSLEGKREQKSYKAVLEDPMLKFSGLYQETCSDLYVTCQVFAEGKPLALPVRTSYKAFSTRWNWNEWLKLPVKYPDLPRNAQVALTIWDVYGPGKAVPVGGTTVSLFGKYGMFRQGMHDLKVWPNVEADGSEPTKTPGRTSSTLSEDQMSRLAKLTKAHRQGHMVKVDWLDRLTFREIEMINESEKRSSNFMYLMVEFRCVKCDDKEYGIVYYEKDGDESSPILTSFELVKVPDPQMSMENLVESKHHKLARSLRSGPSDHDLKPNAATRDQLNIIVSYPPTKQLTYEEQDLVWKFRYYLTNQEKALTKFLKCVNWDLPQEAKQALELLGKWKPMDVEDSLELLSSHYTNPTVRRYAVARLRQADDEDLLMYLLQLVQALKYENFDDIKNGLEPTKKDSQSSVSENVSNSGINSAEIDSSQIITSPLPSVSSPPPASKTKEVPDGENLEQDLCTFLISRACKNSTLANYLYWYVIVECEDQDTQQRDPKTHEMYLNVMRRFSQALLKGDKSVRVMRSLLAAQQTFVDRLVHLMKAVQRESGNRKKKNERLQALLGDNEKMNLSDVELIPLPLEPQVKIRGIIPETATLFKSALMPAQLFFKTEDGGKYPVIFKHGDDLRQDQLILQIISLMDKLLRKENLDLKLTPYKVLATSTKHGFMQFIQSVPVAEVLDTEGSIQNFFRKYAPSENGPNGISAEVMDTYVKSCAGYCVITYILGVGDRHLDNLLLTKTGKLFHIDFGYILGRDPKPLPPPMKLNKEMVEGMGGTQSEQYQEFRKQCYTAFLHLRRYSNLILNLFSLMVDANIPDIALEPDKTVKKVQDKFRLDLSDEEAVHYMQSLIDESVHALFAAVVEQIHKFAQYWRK
UniProt P51946: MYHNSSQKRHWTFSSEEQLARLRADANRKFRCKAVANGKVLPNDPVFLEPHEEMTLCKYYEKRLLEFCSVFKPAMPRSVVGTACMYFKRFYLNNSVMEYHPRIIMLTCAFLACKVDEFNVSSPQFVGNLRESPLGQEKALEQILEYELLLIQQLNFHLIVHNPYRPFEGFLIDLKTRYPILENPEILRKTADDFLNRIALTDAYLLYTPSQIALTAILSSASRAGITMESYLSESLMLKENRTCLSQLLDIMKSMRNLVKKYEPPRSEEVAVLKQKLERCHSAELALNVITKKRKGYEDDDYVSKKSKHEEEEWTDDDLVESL
UniProt Q9UM13, whole entry: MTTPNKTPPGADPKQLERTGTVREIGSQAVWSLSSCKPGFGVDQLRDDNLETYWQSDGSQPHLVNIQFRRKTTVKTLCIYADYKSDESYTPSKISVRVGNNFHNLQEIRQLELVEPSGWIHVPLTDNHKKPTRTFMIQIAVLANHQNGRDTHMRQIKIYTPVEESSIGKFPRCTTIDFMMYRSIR
UniProt Q93045: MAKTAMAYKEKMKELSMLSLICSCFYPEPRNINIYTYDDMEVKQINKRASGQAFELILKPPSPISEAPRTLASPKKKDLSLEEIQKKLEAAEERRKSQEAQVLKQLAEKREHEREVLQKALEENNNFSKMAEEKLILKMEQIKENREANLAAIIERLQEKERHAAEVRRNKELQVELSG
UniProt Q96JI7: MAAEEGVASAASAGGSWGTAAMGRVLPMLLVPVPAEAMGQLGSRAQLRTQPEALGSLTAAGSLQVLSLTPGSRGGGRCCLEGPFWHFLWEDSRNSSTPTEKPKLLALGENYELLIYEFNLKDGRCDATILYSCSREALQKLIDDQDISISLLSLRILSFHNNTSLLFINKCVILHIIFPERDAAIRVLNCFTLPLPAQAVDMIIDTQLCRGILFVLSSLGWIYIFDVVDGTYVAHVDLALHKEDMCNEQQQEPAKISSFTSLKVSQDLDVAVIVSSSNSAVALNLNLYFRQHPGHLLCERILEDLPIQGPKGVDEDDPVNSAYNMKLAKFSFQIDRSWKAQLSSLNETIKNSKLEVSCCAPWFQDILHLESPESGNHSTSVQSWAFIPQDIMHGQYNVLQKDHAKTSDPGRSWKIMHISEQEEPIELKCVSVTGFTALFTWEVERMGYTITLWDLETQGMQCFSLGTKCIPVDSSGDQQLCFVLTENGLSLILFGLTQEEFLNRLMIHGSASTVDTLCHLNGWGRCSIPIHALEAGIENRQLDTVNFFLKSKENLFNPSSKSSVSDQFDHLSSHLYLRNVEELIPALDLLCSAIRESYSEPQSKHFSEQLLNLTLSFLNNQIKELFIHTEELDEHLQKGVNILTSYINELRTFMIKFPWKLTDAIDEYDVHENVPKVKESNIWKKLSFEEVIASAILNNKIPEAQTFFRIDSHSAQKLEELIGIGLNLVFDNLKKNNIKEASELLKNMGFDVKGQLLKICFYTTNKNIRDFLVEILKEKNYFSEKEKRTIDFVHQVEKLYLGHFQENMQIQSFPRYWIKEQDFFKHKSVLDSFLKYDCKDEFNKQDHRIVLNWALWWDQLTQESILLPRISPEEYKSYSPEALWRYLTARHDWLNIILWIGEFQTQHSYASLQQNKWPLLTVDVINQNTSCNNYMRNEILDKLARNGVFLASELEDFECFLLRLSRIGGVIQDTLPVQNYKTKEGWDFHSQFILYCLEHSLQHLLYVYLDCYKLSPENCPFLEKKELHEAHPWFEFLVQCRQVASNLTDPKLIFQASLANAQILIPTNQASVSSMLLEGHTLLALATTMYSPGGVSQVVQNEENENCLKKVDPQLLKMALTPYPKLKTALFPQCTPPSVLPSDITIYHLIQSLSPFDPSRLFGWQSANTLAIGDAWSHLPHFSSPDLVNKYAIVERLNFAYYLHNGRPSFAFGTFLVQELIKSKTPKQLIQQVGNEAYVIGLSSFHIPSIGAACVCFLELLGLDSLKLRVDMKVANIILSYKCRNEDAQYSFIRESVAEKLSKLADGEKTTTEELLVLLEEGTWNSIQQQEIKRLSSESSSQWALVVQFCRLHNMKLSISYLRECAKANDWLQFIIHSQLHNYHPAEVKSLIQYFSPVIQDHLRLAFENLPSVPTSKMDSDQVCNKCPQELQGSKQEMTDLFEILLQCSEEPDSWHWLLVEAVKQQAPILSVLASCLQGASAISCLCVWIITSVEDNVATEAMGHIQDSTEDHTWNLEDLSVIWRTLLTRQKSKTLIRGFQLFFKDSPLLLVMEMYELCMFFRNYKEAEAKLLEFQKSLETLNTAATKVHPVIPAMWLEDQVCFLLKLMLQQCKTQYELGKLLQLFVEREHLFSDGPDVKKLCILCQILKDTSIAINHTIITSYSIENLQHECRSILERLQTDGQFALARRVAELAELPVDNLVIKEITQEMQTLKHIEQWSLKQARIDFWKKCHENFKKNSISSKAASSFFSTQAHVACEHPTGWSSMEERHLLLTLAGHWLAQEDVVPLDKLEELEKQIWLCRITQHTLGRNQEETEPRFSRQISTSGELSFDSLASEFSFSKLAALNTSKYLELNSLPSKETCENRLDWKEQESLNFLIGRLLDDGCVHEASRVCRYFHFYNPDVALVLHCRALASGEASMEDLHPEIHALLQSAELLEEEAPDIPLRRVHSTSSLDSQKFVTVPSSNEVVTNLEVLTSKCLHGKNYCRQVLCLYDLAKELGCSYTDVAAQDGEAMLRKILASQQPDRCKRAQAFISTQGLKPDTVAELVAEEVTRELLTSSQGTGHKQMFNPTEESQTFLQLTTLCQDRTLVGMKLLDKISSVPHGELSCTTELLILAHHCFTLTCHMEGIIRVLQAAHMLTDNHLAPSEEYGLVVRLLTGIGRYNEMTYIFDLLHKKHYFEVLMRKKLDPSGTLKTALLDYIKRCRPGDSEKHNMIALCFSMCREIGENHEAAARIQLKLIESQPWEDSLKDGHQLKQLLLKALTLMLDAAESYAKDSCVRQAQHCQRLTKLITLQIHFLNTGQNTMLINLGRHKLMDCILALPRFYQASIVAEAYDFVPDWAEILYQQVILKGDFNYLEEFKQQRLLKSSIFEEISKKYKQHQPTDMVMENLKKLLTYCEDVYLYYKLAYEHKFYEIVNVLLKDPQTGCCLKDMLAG
UniProt Q8N3U4: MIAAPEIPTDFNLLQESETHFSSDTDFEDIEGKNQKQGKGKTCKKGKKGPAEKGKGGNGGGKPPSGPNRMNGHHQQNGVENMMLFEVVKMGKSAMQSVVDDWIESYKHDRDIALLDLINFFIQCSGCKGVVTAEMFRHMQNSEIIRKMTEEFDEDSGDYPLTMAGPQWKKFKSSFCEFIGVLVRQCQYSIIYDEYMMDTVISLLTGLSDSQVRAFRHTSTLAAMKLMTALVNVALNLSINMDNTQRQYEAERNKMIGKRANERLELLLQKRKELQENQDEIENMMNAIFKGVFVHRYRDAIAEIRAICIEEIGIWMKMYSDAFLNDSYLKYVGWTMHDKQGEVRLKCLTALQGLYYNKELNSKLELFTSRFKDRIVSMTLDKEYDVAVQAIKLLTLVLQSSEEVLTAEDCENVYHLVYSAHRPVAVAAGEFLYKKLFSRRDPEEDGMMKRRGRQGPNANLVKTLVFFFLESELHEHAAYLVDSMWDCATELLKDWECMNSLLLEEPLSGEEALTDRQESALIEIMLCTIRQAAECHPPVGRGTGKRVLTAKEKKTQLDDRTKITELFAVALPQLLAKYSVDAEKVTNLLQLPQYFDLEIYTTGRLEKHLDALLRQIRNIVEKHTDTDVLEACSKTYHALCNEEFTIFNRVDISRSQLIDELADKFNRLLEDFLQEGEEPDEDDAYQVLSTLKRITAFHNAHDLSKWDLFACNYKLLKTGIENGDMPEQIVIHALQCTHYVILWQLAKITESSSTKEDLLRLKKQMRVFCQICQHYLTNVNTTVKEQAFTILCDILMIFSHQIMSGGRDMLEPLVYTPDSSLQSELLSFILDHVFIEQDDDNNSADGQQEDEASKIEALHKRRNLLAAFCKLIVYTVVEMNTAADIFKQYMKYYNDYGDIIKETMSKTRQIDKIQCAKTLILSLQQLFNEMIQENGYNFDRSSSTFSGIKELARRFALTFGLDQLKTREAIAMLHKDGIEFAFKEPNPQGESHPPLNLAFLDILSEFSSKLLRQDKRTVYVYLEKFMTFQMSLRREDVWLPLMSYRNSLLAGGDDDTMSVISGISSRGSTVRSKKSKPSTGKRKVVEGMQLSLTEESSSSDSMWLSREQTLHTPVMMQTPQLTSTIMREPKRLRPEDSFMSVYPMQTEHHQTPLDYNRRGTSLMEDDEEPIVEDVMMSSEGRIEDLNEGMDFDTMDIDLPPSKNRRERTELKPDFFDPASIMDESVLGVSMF
UniProt Q9NQG6: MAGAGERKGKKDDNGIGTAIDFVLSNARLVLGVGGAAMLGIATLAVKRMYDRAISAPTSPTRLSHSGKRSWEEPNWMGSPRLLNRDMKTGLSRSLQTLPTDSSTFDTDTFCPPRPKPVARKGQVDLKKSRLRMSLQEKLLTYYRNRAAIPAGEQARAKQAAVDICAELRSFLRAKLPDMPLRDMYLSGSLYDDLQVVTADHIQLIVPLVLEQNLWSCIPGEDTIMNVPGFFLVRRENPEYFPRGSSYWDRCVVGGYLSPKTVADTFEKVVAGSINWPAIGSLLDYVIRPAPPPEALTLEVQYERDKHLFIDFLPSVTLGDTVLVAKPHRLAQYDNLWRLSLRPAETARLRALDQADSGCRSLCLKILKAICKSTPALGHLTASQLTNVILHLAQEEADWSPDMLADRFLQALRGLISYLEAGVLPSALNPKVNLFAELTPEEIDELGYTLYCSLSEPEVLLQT
UniProt P43243: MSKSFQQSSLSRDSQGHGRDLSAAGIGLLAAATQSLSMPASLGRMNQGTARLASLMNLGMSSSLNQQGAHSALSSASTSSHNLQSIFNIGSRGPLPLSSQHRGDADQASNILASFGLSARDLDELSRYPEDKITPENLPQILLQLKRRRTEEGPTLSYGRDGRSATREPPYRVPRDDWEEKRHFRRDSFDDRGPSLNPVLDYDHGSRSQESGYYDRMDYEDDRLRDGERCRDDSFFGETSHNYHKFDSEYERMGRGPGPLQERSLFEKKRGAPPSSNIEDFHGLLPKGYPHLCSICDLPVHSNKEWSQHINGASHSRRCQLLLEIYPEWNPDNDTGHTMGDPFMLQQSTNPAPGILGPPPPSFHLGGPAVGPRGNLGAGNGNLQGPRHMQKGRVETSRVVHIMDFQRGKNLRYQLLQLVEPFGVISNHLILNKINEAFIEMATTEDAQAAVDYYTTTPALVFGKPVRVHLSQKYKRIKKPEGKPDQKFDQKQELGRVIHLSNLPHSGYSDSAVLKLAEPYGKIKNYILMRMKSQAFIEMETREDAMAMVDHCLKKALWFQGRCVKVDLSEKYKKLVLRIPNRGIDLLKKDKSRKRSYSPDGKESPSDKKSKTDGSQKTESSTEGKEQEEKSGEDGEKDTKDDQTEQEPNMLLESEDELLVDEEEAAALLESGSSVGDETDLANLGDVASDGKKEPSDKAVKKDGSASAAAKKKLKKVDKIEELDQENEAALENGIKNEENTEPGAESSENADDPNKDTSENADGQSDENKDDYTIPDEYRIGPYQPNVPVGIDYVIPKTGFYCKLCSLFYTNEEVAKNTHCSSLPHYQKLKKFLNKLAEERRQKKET

Compound: Nc1ncnc2c1ncn2[C@@H]1O[C@H](COP(=O)(O)OP(=O)(O)NP(=O)(O)O)[C@@H](O)[C@H]1O [adenylyl imidodiphosphate]
Test: NP40-soluble protein abundance relative to vehicle (solubility fold change) (ratio); higher = more soluble protein in presence of AMP-PNP
Summary of the method: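 Jurkat crude lysate prepared with a Dounce homogeniser was treated at eight concentrations spanning 0.1 to 10 mM, 10 min at room temperature then 3 min at 37 °C. Solubilisation with 0.8% NP40 and benzonase and ultracentrifugation preceded TMT labelling of the supernatant for LC-MS/MS. Fold change against the detergent-processed vehicle was determined per replicate from vsn-normalised intensities, across three independent experiments.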

| Target | NP40-soluble protein abundance (concentration: 1mM) | NP40-soluble protein abundance (concentration: 2mM) | NP40-soluble protein abundance (concentration: 4mM) | NP40-soluble protein abundance (concentration: 6mM) | NP40-soluble protein abundance (concentration: 8mM) | NP40-soluble protein abundance (concentration: 10mM) |
| --- | --- | --- | --- | --- | --- | --- |
| A8MYT4 and related entries (UniProt Q8NEB9) | 0.995 ± 0.019 | 0.931 ± 0.099 | 0.989 ± 0.044 | 0.93 ± 0.048 | 0.937 ± 0.039 | 0.906 ± 0.04 |
| A6NFX8 and related entries (UniProt Q9UKK9) | 0.974 ± 0.024 | 0.91 ± 0.049 | 0.964 ± 0.034 | 0.989 ± 0.024 | 1.03 ± 0.041 | 0.982 ± 0.03 |
| UniProt A8MWY0 and related entries | 0.9848 ± 0.0075 | 1.01 ± 0.024 | 0.973 ± 0.012 | 0.96842 ± 0.00077 | 0.9736 ± 0.0021 | 0.96598 ± 0.00015 |
| C9J5C3 and related entries (UniProt Q9BUL8) | 1.02 ± 0.045 | 1.01 ± 0.0049 | 1.02 ± 0.029 | 1.01 ± 0.039 | 1.01 ± 0.021 | 1 ± 0.046 |
| UniProt B4DLN1 | 0.9789 ± 0.0093 | 0.906 ± 0.044 | 0.961 ± 0.045 | 0.938 ± 0.059 | 0.993 ± 0.038 | 0.932 ± 0.049 |
| MIF4GD (UniProt A9UHW6) | 0.968 ± 0.045 | 0.9704 ± 0.0057 | 0.951 ± 0.034 | 0.938 ± 0.039 | 0.918 ± 0.032 | 0.905 ± 0.045 |
| B4E107 and related entries (UniProt O95260) | 1.03 ± 0.02 | 1.04 ± 0.029 | 1.04 ± 0.015 | 1.01 ± 0.02 | 0.992 ± 0.015 | 1.01 ± 0.053 |
| D6RHH4 and related entries (UniProt P63244) | 0.947 ± 0.042 | 0.829 ± 0.14 | 0.903 ± 0.1 | 0.851 ± 0.03 | 0.843 ± 0.041 | 0.818 ± 0.089 |
| A2RQR6 and related entries (UniProt Q96EI5) | 1.03 ± 0.025 | 1.08 ± 0.079 | 0.988 ± 0.052 | 1 ± 0.019 | 1.01 ± 0.014 | 1.02 ± 0.067 |
| B7Z5R0 (UniProt Q9BV97) | 0.9927 ± 0.0082 | 1.03 ± 0.013 | 1.02 ± 0.026 | 0.995 ± 0.018 | 0.995 ± 0.021 | 0.98 ± 0.018 |
| A6NF51 and related entries (UniProt O95861) | 0.996 ± 0.05 | 0.978 ± 0.077 | 1 ± 0.1 | 1.12 ± 0.1 | 1.13 ± 0.11 | 1.14 ± 0.1 |
| D6RG18 and related entries (UniProt P51946) | 1.07 ± 0.077 | 1.04 ± 0.022 | 1.04 ± 0.053 | 1.04 ± 0.018 | 1.07 ± 0.049 | 1.07 ± 0.018 |
| A6NEP9 and related entries (UniProt Q8NG11) | 1.002 ± 0.008 | 0.988 ± 0.043 | 0.962 ± 0.015 | 0.998 ± 0.031 | 0.943 ± 0.037 | 0.967 ± 0.023 |
| B7WPL0 and related entries (UniProt Q9NVN3) | 0.982 ± 0.013 | 0.971 ± 0.023 | 0.997 ± 0.017 | 0.962 ± 0.032 | 0.982 ± 0.016 | 0.967 ± 0.01 |
| C9J713 and related entries (UniProt Q96IZ7) | 1.07 ± 0.027 | 1.09 ± 0.073 | 1.04 ± 0.053 | 1.01 ± 0.038 | 1.02 ± 0.043 | 1.05 ± 0.044 |
| C9JIF9 and related entries (UniProt P13798) | 0.953 ± 0.027 | 0.88 ± 0.061 | 0.915 ± 0.0095 | 0.903 ± 0.014 | 0.909 ± 0.022 | 0.871 ± 0.04 |
| A8MUM1 and related entries (UniProt Q53HC9) | 0.9889 ± 0.0068 | 0.923 ± 0.098 | 0.931 ± 0.038 | 0.926 ± 0.039 | 0.93 ± 0.043 | 0.877 ± 0.048 |
| D6R9Q5 and related entries (UniProt Q9UM13) | 0.999 ± 0.022 | 0.972 ± 0.018 | 1.01 ± 0.021 | 1.01 ± 0.04 | 1.01 ± 0.042 | 0.981 ± 0.042 |
| E5RGX5 and related entries (UniProt Q93045) | 1.03 ± 0.058 | 1.03 ± 0.036 | 0.926 ± 0.11 | 0.894 ± 0.024 | 0.857 ± 0.038 | 0.86 ± 0.11 |
| C4B7M2 and related entries (UniProt Q96JI7) | 0.989 ± 0.011 | 0.988 ± 0.019 | 0.9763 ± 0.0049 | 0.985 ± 0.018 | 0.98 ± 0.023 | 0.97 ± 0.022 |
| B1AMT0 and related entries (UniProt Q8N3U4) | 0.939 ± 0.06 | 0.861 ± 0.051 | 0.93 ± 0.019 | 0.966 ± 0.076 | 0.975 ± 0.036 | 0.931 ± 0.028 |
| B0QY95 and related entries (UniProt Q9NQG6+B0QY95) | 1.03 ± 0.03 | 0.995 ± 0.028 | 0.9979 ± 0.0077 | 1.01 ± 0.016 | 1.04 ± 0.019 | 1 ± 0.035 |
| A8MXP9 and related entries (UniProt P43243) | 1.03 ± 0.033 | 1.07 ± 0.016 | 1.05 ± 0.016 | 1.07 ± 0.042 | 1.08 ± 0.025 | 1.1 ± 0.028 |

A different layout for some results above:
Target	NP40-soluble protein abundance (concentration: 1mM)	NP40-soluble protein abundance (concentration: 2mM)	NP40-soluble protein abundance (concentration: 4mM)	NP40-soluble protein abundance (concentration: 6mM)	NP40-soluble protein abundance (concentration: 8mM)	NP40-soluble protein abundance (concentration: 10mM)
D6RHH4 and related entries (UniProt P63244)	0.947 ± 0.042	0.829 ± 0.14	0.903 ± 0.1	0.851 ± 0.03	0.843 ± 0.041	0.818 ± 0.089
A2RQR6 and related entries (UniProt Q96EI5)	1.03 ± 0.025	1.08 ± 0.079	0.988 ± 0.052	1 ± 0.019	1.01 ± 0.014	1.02 ± 0.067
